Square brackets hold non-standard residues; d marks the D form. Peptide text beside a SMILES is read from it. * marks the point of attachment. Palmitoyl = CCCCCCCCCCCCCCCC(=O)*; Lauroyl = CCCCCCCCCCCC(=O)*; Octanoyl = CCCCCCCC(=O)*; Aun = NCCCCCCCCCCC(=O)O; Aib = CC(C)(N)C(=O)O
How the values were obtained:
[1] = test system: ram red blood cells (RBCs); conditions: MHC = lowest concentration inducing 10% haemolysis of RBCs; ratio to MIC on at least five out of six bacterial species
Description: The lytic potential towards eukaryotic cell membranes was assessed by measuring the release of haemoglobin from commercial ram red blood cells (RBCs) (Microbiol s.r.l., Cagliari, Italy) after exposure to the peptides. First, erythrocytes were isolated by centrifugation, washed with PBS and then suspended at 8% (v/v) in PBS. Secondly, 100 µL erythrocytes suspension was added into each well of a 96-well microplate. Then, 100 µL peptide solution was added to each well at different concentrations (the final concentration of erythrocytes suspension was 4% v/v), and the plates were incubated for 1 h at 37 °C and centrifuged at 1000 g for 10 min. Finally, 100 µL aliquots of supernatant were transferred to fresh 96-well microplate, and the release of haemoglobin was monitored by measuring the absorbance at 540 nm with Tecan microplate reader (Tecan Trading AG, Switzerland). 0% and 100% haemolysis were determined in PBS and 1% Triton X-100, respectively.

HaCaT cell line = test: MTT cytotoxicity assay on HaCaT cells; conditions: ratio between cytotoxicity (HaCaT IC50, 50% reduction of viability) and MIC on at least five out of six bacterial species

Compound: CCCCCCCC(=O)N[C@@H](CCCCN)C(=O)N[C@@H](CCCNC(=N)N)C(=O)N[C@@H](CC(C)C)C(=O)N[C@@H](CCCCN)C(=O)N[C@@H](CCCCN)C(=O)N[C@H](C(=O)NCC(=O)N[C@@H](CCCCN)C(=O)N[C@H](C(=O)N[C@@H](CC(C)C)C(=O)N[C@@H](CCCCN)C(=O)N[C@@H](Cc1c[nH]c2ccccc12)C(=O)N[C@H](C(=O)N[C@@H](C)C(=O)N[C@@H](CCCCN)C(=O)N[C@H](C(=O)N[C@H](C(=O)NCC(=O)N[C@@H](CO)C(=O)N[C@H](C(N)=O)[C@@H](C)CC)C(C)C)[C@@H](C)CC)[C@@H](C)CC)C(C)C)[C@@H](C)CC [c] (Octanoyl-KRLKKIGKVLKWIAKIVGSI-NH2)
- Minimum selectivity index MHC/MIC [1]: < 0.5
- Minimum selectivity index IC50 /MIC (HaCaT cell line): ≤ 1.6

Compound: CCCCCCCCCCCC(=O)N[C@@H](CCCCN)C(=O)N[C@@H](CCCNC(=N)N)C(=O)N[C@@H](CC(C)C)C(=O)N[C@@H](CCCCN)C(=O)N[C@@H](CCCCN)C(=O)N[C@H](C(=O)NCC(=O)N[C@@H](CCCCN)C(=O)N[C@H](C(=O)N[C@@H](CC(C)C)C(=O)N[C@@H](CCCCN)C(=O)N[C@@H](Cc1c[nH]c2ccccc12)C(=O)N[C@H](C(=O)N[C@@H](C)C(=O)N[C@@H](CCCCN)C(=O)N[C@H](C(=O)N[C@H](C(=O)NCC(=O)N[C@@H](CO)C(=O)N[C@H](C(N)=O)[C@@H](C)CC)C(C)C)[C@@H](C)CC)[C@@H](C)CC)C(C)C)[C@@H](C)CC [d] (Lauroyl-KRLKKIGKVLKWIAKIVGSI-NH2)
- Minimum selectivity index MHC/MIC [1]: ≤ 0.1
- Minimum selectivity index IC50 /MIC (HaCaT cell line): < 0.2

Compound: CCCCCCCCCCCCCCCC(=O)N[C@@H](CCCCN)C(=O)N[C@@H](CCCNC(=N)N)C(=O)N[C@@H](CC(C)C)C(=O)N[C@@H](CCCCN)C(=O)N[C@@H](CCCCN)C(=O)N[C@H](C(=O)NCC(=O)N[C@@H](CCCCN)C(=O)N[C@H](C(=O)N[C@@H](CC(C)C)C(=O)N[C@@H](CCCCN)C(=O)N[C@@H](Cc1c[nH]c2ccccc12)C(=O)N[C@H](C(=O)N[C@@H](C)C(=O)N[C@@H](CCCCN)C(=O)N[C@H](C(=O)N[C@H](C(=O)NCC(=O)N[C@@H](CO)C(=O)N[C@H](C(N)=O)[C@@H](C)CC)C(C)C)[C@@H](C)CC)[C@@H](C)CC)C(C)C)[C@@H](C)CC [e] (Palmitoyl-KRLKKIGKVLKWIAKIVGSI-NH2)
- Minimum selectivity index MHC/MIC [1]: < 0.2
- Minimum selectivity index IC50 /MIC (HaCaT cell line): < 0.2

Compound: CC[C@H](C)[C@H](NC(=O)[C@H](CO)NC(=O)CNC(=O)[C@@H](NC(=O)[C@@H](NC(=O)[C@H](CCCCN)NC(=O)[C@H](C)NC(=O)[C@@H](NC(=O)[C@H](Cc1c[nH]c2ccccc12)NC(=O)[C@H](CCCCN)NC(=O)[C@H](CC(C)C)NC(=O)[C@@H](NC(=O)[C@H](CCCCN)NC(=O)CNC(=O)[C@@H](NC(=O)[C@H](CCCCN)NC(=O)[C@H](CCCCN)NC(=O)[C@H](CC(C)C)NC(=O)[C@H](CCCNC(=N)N)NC(=O)[C@H](CCCCN)NC(C)=O)[C@@H](C)CC)C(C)C)[C@@H](C)CC)[C@@H](C)CC)C(C)C)C(=O)NCCCCCCCCCCC(N)=O [f] (Ac-KRLKKIGKVLKWIAKIVGSI[Aun]-NH2)
- Minimum selectivity index MHC/MIC [1]: < 0.5
- Minimum selectivity index IC50 /MIC (HaCaT cell line): < 1

Compound: CC[C@H](C)[C@H](NC(=O)[C@H](Cc1c[nH]c2ccccc12)NC(=O)[C@H](CCCCN)NC(=O)C(C)(C)NC(=O)[C@@H](NC(=O)[C@H](CCCCN)NC(=O)CNC(=O)[C@@H](NC(=O)[C@H](CCCCN)NC(=O)[C@H](CCCCN)NC(=O)[C@H](CC(C)C)NC(=O)[C@H](CCCNC(=N)N)NC(=O)[C@H](CCCCN)NC(C)=O)[C@@H](C)CC)C(C)C)C(N)=O [h] (Ac-KRLKKIGKV[Aib]KWI-NH2)
- Minimum selectivity index MHC/MIC [1]: > 4
- Minimum selectivity index IC50 /MIC (HaCaT cell line): ≥ 6.8

Compound: Ac-KRLKKIGKVLKWI-NH2 [g]
- Minimum selectivity index MHC/MIC [1]: > 4
- Minimum selectivity index IC50 /MIC (HaCaT cell line): > 8

Compound: Ac-KRLKKIGKVLKWIAKIVGSI-NH2 [b]
- Minimum selectivity index MHC/MIC [1]: ≥ 1
- Minimum selectivity index IC50 /MIC (HaCaT cell line): ≥ 1.6

Compound: Ac-KRLKKIGKVLKWIPPIVGSI-NH2 [a]
- Minimum selectivity index MHC/MIC [1]: > 8
- Minimum selectivity index IC50 /MIC (HaCaT cell line): > 16
